Assay results from publication doi:10.1101/2024.08.26.609654.

Molecular target: T1, 3×Flag-MED26 (UniProt O95402)
T1 sequence: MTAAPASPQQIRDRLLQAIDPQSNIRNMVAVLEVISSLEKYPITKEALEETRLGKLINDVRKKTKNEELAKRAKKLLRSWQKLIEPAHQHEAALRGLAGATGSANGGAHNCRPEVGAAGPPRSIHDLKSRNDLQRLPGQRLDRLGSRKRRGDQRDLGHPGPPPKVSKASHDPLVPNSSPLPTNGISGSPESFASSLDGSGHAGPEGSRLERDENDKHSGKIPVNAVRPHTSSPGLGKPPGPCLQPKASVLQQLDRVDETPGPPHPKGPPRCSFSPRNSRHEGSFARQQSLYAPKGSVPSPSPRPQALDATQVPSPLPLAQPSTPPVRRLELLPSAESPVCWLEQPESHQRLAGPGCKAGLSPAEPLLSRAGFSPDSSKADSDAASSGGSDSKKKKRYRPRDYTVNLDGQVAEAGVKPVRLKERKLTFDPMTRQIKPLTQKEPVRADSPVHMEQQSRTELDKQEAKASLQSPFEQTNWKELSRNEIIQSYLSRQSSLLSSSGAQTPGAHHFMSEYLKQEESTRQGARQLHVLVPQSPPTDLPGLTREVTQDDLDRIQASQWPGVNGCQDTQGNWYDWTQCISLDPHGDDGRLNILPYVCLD
Assay: co-IP

binding: binds
Substance: NELF-D (human (endogenous in HEK293))

These are yes or no findings as the source states them, for the method shown. In cells and extracts the contact can be indirect. A result given as binding can be weak or reduced; the word gives no strength. Sequences can lack the tags named with a protein.
